# Laboratory results reported in patent US7888349B2, “Piperazine, [1,4]Diazepane, [1,4]Diazocane, and [1,5]Diazocane fused imidazo ring compounds” (3M Innovative Properties Company, priority 2003, dated 2011).
# Some entries share one result that the patent states for a list of compounds.
# System: mouse macrophage cell line Raw 264.7
# Experiment: TNF-α Inhibition in Mouse Cells, Single Concentration Assay
# Type: cell-based
# Details: Raw 264.7 cells stimulated by LPS; single concentration 5 μM or dose response, not stated which
row,Compound,inhibition of production of tumor necrosis factor α (TNF-α)
1,CN(C)C(=O)N1CCCn2c(nc3c(N)nc4ccccc4c32)C1 [Example 286],inhibiting production of tumor necrosis factor α (TNF-α)
2,CN(C(=O)N1CCCn2c(nc3c(N)nc4ccccc4c32)C1)c1ccccc1 [Example 321],inhibiting production of tumor necrosis factor α (TNF-α)
3,COc1cc(OC)cc(C(=O)N2CCCn3c(nc4c(N)nc5ccccc5c43)C2)c1.O=C(O)C(F)(F)F [Example 236],inhibiting production of tumor necrosis factor α (TNF-α)
4,Nc1nc2ccccc2c2c1nc1n2CCCN(C(=O)c2c(F)cccc2F)C1.O=C(O)C(F)(F)F [Example 222],inhibiting production of tumor necrosis factor α (TNF-α)
5,Nc1nc2ccccc2c2c1nc1n2CCCN(C(=O)c2ccc(OC(F)(F)F)cc2)C1.O=C(O)C(F)(F)F [Example 243],inhibiting production of tumor necrosis factor α (TNF-α)
6,Nc1nc2ccccc2c2c1nc1n2CCCN(C(=O)Nc2ccccc2Cl)C1 [Example 311],inhibiting production of tumor necrosis factor α (TNF-α)
7,CN(C)c1ccc(NC(=O)N2CCCn3c(nc4c(N)nc5ccccc5c43)C2)cc1 [Example 314],inhibiting production of tumor necrosis factor α (TNF-α)
8,Nc1nc2ccccc2c2c1nc1n2CCCN(C(=O)Nc2ccccc2OC(F)(F)F)C1 [Example 328],inhibiting production of tumor necrosis factor α (TNF-α)
9,CCCCC(=O)N1CCn2c(nc3c(N)nc4ccccc4c32)C1.O=C(O)C(F)(F)F [Example 76],inhibiting production of tumor necrosis factor α (TNF-α)
10,Nc1nc2ccccc2c2c1nc1n2CCCN(C(=O)Nc2ccccc2[N+](=O)[O-])C1 [Example 317],inhibiting production of tumor necrosis factor α (TNF-α)
11,Nc1nc2ccccc2c2c1nc1n2CCCN(C(=O)N2CCCCC2)C1 [Example 305],inhibiting production of tumor necrosis factor α (TNF-α)
12,COc1ccc(CNC(=O)N2CCCn3c(nc4c(N)nc5ccccc5c43)C2)cc1 [Example 315],inhibiting production of tumor necrosis factor α (TNF-α)
13,Nc1nc2ccccc2c2c1nc1n2CCCN(C(=O)N[C@@H]2C[C@H]2c2ccccc2)C1 (relative stereo) [Example 312],inhibiting production of tumor necrosis factor α (TNF-α)
14,COC(=O)CCCCC(=O)N1CCCn2c(nc3c(N)nc4ccccc4c32)C1.O=C(O)C(F)(F)F [Example 225],inhibiting production of tumor necrosis factor α (TNF-α)
15,CN(C(=O)N1CCn2c(nc3c(N)nc4ccccc4c32)C1)c1ccccc1 [Example 110],inhibiting production of tumor necrosis factor α (TNF-α)
16,COC(=O)c1cccc(NC(=O)N2CCCn3c(nc4c(N)nc5ccccc5c43)C2)c1 [Example 323],inhibiting production of tumor necrosis factor α (TNF-α)
17,Nc1nc2ccccc2c2c1nc1n2CCCN(C(=O)c2ccc(Cl)cc2)C1.O=C(O)C(F)(F)F [Example 218],inhibiting production of tumor necrosis factor α (TNF-α)
18,Nc1nc2ccccc2c2c1nc1n2CCCN(C(=O)NC(=O)c2ccccc2)C1 [Example 299],inhibiting production of tumor necrosis factor α (TNF-α)
19,COc1cc(C(=O)N2CCCn3c(nc4c(N)nc5ccccc5c43)C2)cc(OC)c1OC.O=C(O)C(F)(F)F [Example 244],inhibiting production of tumor necrosis factor α (TNF-α)
20,CN(C)C(=O)N1CCn2c(nc3c(N)nc4ccccc4c32)C1 [Example 95],inhibiting production of tumor necrosis factor α (TNF-α)
21,COc1cccc(C(=O)N2CCCn3c(nc4c(N)nc5ccccc5c43)C2)c1.O=C(O)C(F)(F)F [Example 214],inhibiting production of tumor necrosis factor α (TNF-α)
22,COc1ccc(C(=O)N2CCCn3c(nc4c(N)nc5ccccc5c43)C2)cc1.O=C(O)C(F)(F)F [Example 215],inhibiting production of tumor necrosis factor α (TNF-α)
23,Nc1nc2ccccc2c2c1nc1n2CCCN(C(=O)NC23CC4CC(CC(C4)C2)C3)C1 [Example 324],inhibiting production of tumor necrosis factor α (TNF-α)
24,C[C@H](NC(=O)N1CCCn2c(nc3c(N)nc4ccccc4c32)C1)c1ccccc1 [Example 301],inhibiting production of tumor necrosis factor α (TNF-α)
25,Nc1nc2ccccc2c2c1nc1n2CCCN(C(=O)COc2ccc(Cl)cc2)C1.O=C(O)C(F)(F)F [Example 237],inhibiting production of tumor necrosis factor α (TNF-α)

row,Compound,inhibition of production of tumor necrosis factor α (TNF-α)
1,Nc1nc2ccccc2c2c1nc1n2CCCN(C(=O)NCCc2ccccc2)C1 [Example 304],inhibiting production of tumor necrosis factor α (TNF-α)
2,Nc1nc2ccccc2c2c1nc1n2CCCN(C(=O)Nc2ccccc2-c2ccccc2)C1 [Example 327],inhibiting production of tumor necrosis factor α (TNF-α)
3,Nc1nc2ccccc2c2c1nc1n2CCCN(C(=O)OCc2ccccc2)C1.O=C(O)C(F)(F)F [Example 213],inhibiting production of tumor necrosis factor α (TNF-α)
4,Nc1nc2ccccc2c2c1nc1n2CCCN(C(=O)c2cc(F)ccc2F)C1.O=C(O)C(F)(F)F [Example 221],inhibiting production of tumor necrosis factor α (TNF-α)
5,Nc1nc2ccccc2c2c1nc1n2CCCN(C(=O)c2cccc(C(F)(F)F)c2)C1.O=C(O)C(F)(F)F [Example 238],inhibiting production of tumor necrosis factor α (TNF-α)
6,Nc1nc2ccccc2c2c1nc1n2CCCN(C(=O)CCc2ccccc2)C1.O=C(O)C(F)(F)F [Example 212],inhibiting production of tumor necrosis factor α (TNF-α)
7,CC(C)(C)c1ccc(C(=O)N2CCCn3c(nc4c(N)nc5ccccc5c43)C2)cc1.O=C(O)C(F)(F)F [Example 233],inhibiting production of tumor necrosis factor α (TNF-α)
8,CC(=O)c1cccc(NC(=O)N2CCn3c(nc4c(N)nc5ccccc5c43)C2)c1 [Example 108],inhibiting production of tumor necrosis factor α (TNF-α)
9,CC(C)(C)NC(=O)N1CCn2c(nc3c(N)nc4ccccc4c32)C1 [Example 94],inhibiting production of tumor necrosis factor α (TNF-α)
10,Nc1nc2ccccc2c2c1nc1n2CCCN(C(=O)CCC2CCCC2)C1.O=C(O)C(F)(F)F [Example 210],inhibiting production of tumor necrosis factor α (TNF-α)
11,Nc1nc2ccccc2c2c1nc1n2CCCN(C(=O)Nc2ccccc2F)C1 [Example 293],inhibiting production of tumor necrosis factor α (TNF-α)
12,Nc1nc2ccccc2c2c1nc1n2CCCN(C(=O)c2ccc3c(c2)OCO3)C1.O=C(O)C(F)(F)F [Example 226],inhibiting production of tumor necrosis factor α (TNF-α)
13,Cc1cccc(NC(=O)N2CCCn3c(nc4c(N)nc5ccccc5c43)C2)c1 [Example 290],inhibiting production of tumor necrosis factor α (TNF-α)
14,Cc1ccc(CNC(=O)N2CCCn3c(nc4c(N)nc5ccccc5c43)C2)cc1 [Example 303],inhibiting production of tumor necrosis factor α (TNF-α)
15,Nc1nc2ccccc2c2c1nc1n2CCCN(C(=O)Nc2cccc(C(F)(F)F)c2)C1 [Example 326],inhibiting production of tumor necrosis factor α (TNF-α)
16,Nc1nc2ccccc2c2c1nc1n2CCCN(C(=O)c2ccc(Cl)nc2)C1.O=C(O)C(F)(F)F [Example 220],inhibiting production of tumor necrosis factor α (TNF-α)
17,Nc1nc2ccccc2c2c1nc1n2CCN(C(=O)N2CCCCC2)C1 [Example 104],inhibiting production of tumor necrosis factor α (TNF-α)
18,Nc1nc2ccccc2c2c1nc1n2CCCN(C(=O)NCc2ccc(F)cc2)C1 [Example 310],inhibiting production of tumor necrosis factor α (TNF-α)
19,CC(C)CC(=O)N1CCn2c(nc3c(N)nc4ccccc4c32)C1.O=C(O)C(F)(F)F [Example 75],inhibiting production of tumor necrosis factor α (TNF-α)
20,Nc1nc2ccccc2c2c1nc1n2CCCN(C(=O)c2cccnc2)C1.O=C(O)C(F)(F)F [Example 224],inhibiting production of tumor necrosis factor α (TNF-α)
21,Nc1nc2ccccc2c2c1nc1n2CCCN(C(=O)c2ccc(Cl)cc2Cl)C1.O=C(O)C(F)(F)F [Example 240],inhibiting production of tumor necrosis factor α (TNF-α)
22,Nc1nc2ccccc2c2c1nc1n2CCCN(C(=O)c2ccc(Cl)c(Cl)c2)C1.O=C(O)C(F)(F)F [Example 242],inhibiting production of tumor necrosis factor α (TNF-α)
23,COC(=O)c1ccc(C(=O)N2CCCn3c(nc4c(N)nc5ccccc5c43)C2)cc1.O=C(O)C(F)(F)F [Example 234],inhibiting production of tumor necrosis factor α (TNF-α)
24,Nc1nc2ccccc2c2c1nc1n2CCCN(C(=O)c2ccc3ccccc3c2)C1.O=C(O)C(F)(F)F [Example 232],inhibiting production of tumor necrosis factor α (TNF-α)

# System: human peripheral blood mononuclear cells (PBMC)
# Experiment: Cytokine Induction in Human Cells (interferon α and tumor necrosis factor α secreted into culture media)
# Type: cell-based
# Details: compounds generally tested at 30-0.014 μM, incubated 18 to 24 hours, ELISA of supernatant
row,Compound,induction of production of interferon α and/or tumor necrosis factor α
1,CN(C)C(=O)N1CCCn2c(nc3c(N)nc4ccccc4c32)C1 [Example 286],inducing the production of interferon α and/or tumor necrosis factor α
